{"source": "patent US7906334B2", "about": "“Method for reproducing conifers by somatic embryogenesis using lactose as a carbon source” (Cellfor Inc., priority 2003, dated 2011)", "key": {"[1]": {"tested_on": "Douglas fir tissue (DF-7A)", "assay": "Changes of carbohydrates in suspension media (enzymatic BioAnalysis)", "format": "cell-based, Pseudotsuga menziesii (Douglas fir)", "conditions": "for Sugar in medium After use (%) / Decreased (%): DF-7A, one week; for Sugar in medium After use (%): before use 0.5% glucose, 0.5% galactose, 1% lactose, 0.5% mannitol; for metabolism by Douglas fir tissue: conclusion in words"}, "[2]": {"tested_on": "loblolly pine lines LP3 and LP6", "assay": "Carbohydrate metabolism: sugar analysis of liquid media", "format": "cell-based, Pinus taeda (loblolly pine)", "conditions": "for % sugar missing (utilised): sugar in media at the start: sucrose 1.0%, lactose 1.5%"}}}
{"compound": "O=C[C@H](O)[C@@H](O)[C@@H](O)[C@H](O)CO", "note": "[Galactose]", "values": [{"measurement": "Sugar in medium After use (%)", "setting": "[1]", "value": 0.097, "unit": "%"}, {"measurement": "metabolism by Douglas fir tissue", "setting": "[1]", "value": "can be utilised slowly"}]}
{"compound": "OC[C@H]1O[C@@H](O[C@H]2[C@H](O)[C@@H](O)C(O)O[C@@H]2CO)[C@H](O)[C@@H](O)[C@H]1O", "note": "(some centres unmarked) [Lactose]", "values": [{"measurement": "% sugar missing (utilised)", "setting": "[2]", "value": 12, "unit": "%"}, {"measurement": "Decreased (%)", "setting": "[1]", "value": 0.01, "unit": "%"}, {"measurement": "Sugar in medium After use (%)", "setting": "[1]", "value": 0.99, "unit": "%"}, {"measurement": "metabolism by Douglas fir tissue", "setting": "[1]", "value": "not metabolised"}]}
{"compound": "OC[C@H]1O[C@@](CO)(O[C@H]2O[C@H](CO)[C@@H](O)[C@H](O)[C@H]2O)[C@@H](O)[C@@H]1O", "note": "[Sucrose, sucrose]", "values": [{"measurement": "day at which sucrose was completely hydrolysed", "setting": "[2]; both lines, first week of culture in TX maintenance medium", "value": 5, "unit": "days"}, {"measurement": "% sugar missing (utilised)", "setting": "[2]", "value": 30, "unit": "%"}]}
{"compound": "OC[C@@H](O)[C@@H](O)[C@H](O)[C@H](O)CO", "note": "[mannitol, reference compound]", "values": [{"measurement": "Decreased (%)", "setting": "[1]", "value": 0, "unit": "%"}, {"measurement": "Sugar in medium After use (%)", "setting": "[1]", "value": 0.5, "unit": "%"}, {"measurement": "metabolism by Douglas fir tissue", "setting": "[1]", "value": "not metabolised"}]}
